# Measured values as given in article PMC7648758 (Nature Communications, 2020).
# Test: general procedure: Fmoc solid-phase peptide synthesis; trityl chloride resin; HATU/HOAt/DIPEA
# Settings: whole synthesis
Substance,crude purity (method not given),final purity (method not given)
"[sc,sc(Boc-KS(tBu)R(Pbf)W(Boc)- D(OtBu)E)]-OH",>90%,
"[sc,sc(KSRWDE)]-K-C-OH",,>90%
